Source: article doi:10.1101/2020.04.30.071365
These are yes or no findings as the source states them, for the method shown. In cells and extracts the contact can be indirect. Some entries that bind do so weakly or less than the wild type. For some of these results: Tags and fused reporters may be left off the sequences shown.

T1: RBM14-HA (UniProt Q96PK6)
T1 sequence: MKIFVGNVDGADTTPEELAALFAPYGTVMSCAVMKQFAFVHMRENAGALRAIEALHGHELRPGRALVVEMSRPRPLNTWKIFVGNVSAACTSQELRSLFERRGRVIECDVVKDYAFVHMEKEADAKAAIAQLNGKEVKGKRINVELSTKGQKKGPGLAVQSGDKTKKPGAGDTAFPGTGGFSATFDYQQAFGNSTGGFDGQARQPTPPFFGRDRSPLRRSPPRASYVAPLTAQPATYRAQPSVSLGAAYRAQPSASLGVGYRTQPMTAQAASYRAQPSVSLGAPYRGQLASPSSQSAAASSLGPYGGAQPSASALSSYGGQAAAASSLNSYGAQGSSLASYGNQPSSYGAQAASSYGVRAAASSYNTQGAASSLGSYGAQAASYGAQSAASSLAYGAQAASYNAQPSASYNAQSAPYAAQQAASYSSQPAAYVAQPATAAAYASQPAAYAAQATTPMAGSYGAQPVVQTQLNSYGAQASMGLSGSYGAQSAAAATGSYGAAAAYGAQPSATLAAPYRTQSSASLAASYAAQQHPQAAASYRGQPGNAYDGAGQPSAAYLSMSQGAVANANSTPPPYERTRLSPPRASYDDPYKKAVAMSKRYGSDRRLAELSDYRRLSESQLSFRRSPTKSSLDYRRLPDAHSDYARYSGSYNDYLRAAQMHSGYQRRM

T2: mCherry-cyclin F(WT) (human) (UniProt P41002)
T2 sequence: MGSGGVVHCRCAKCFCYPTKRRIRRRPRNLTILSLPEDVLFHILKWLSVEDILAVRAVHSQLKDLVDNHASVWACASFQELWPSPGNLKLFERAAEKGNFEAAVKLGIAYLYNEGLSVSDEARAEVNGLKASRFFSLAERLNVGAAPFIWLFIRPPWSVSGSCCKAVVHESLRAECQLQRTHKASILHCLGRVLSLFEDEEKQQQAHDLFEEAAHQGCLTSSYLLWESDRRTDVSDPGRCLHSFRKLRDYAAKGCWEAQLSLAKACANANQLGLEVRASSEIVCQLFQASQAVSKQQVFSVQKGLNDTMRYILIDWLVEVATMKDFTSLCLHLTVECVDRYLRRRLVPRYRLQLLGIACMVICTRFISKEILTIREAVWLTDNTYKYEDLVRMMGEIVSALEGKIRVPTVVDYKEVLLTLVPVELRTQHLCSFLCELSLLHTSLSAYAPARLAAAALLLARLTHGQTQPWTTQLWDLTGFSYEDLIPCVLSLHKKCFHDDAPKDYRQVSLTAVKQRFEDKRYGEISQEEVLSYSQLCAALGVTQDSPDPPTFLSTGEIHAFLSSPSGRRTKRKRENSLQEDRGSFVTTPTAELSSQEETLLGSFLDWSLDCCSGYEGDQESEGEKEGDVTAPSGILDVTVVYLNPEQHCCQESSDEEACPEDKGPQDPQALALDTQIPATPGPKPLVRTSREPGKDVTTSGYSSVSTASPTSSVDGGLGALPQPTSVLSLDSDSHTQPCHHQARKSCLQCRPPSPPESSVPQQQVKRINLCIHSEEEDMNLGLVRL

T3: mCherry-cyclin F(S621G) (human) (UniProt P41002)
T3 sequence: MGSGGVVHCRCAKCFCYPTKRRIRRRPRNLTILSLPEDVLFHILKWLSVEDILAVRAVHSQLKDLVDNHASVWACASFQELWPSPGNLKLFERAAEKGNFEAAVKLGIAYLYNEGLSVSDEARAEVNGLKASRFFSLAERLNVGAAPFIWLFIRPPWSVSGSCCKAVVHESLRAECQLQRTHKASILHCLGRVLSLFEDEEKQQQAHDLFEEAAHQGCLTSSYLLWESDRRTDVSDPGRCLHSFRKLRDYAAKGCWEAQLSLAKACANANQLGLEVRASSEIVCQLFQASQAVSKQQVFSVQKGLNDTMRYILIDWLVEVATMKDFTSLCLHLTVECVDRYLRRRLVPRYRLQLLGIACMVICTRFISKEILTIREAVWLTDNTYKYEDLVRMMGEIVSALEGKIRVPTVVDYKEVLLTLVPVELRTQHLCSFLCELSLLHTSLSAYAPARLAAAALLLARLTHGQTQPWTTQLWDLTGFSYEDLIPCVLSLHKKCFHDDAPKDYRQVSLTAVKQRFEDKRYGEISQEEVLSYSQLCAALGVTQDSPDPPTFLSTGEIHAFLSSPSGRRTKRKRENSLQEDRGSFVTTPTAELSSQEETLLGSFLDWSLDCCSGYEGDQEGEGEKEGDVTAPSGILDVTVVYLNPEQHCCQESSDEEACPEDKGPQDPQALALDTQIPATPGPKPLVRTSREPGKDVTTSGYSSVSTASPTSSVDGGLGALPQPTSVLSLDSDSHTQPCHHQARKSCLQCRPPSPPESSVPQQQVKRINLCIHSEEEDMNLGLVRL


Assays:
Test in all cases: co-IP
RBM14-HA = molecular target: T1, RBM14-HA
[1] = molecular target: T2, mCherry-cyclin F(WT) (human)
[2] = molecular target: T3, mCherry-cyclin F(S621G) (human)

| binding (RBM14-HA) | binding [1] | binding [2] | Binder |
| --- | --- | --- | --- |
| binds | – | – | cyclin F(WT)-flag (protein, UniProt P41002 1-786) MGSGGVVHCRCAKCFCYPTKRRIRRRPRNLTILSLPEDVLFHILKWLSVEDILAVRAVHSQLKDLVDNHASVWACASFQELWPSPGNLKLFERAAEKGNFEAAVKLGIAYLYNEGLSVSDEARAEVNGLKASRFFSLAERLNVGAAPFIWLFIRPPWSVSGSCCKAVVHESLRAECQLQRTHKASILHCLGRVLSLFEDEEKQQQAHDLFEEAAHQGCLTSSYLLWESDRRTDVSDPGRCLHSFRKLRDYAAKGCWEAQLSLAKACANANQLGLEVRASSEIVCQLFQASQAVSKQQVFSVQKGLNDTMRYILIDWLVEVATMKDFTSLCLHLTVECVDRYLRRRLVPRYRLQLLGIACMVICTRFISKEILTIREAVWLTDNTYKYEDLVRMMGEIVSALEGKIRVPTVVDYKEVLLTLVPVELRTQHLCSFLCELSLLHTSLSAYAPARLAAAALLLARLTHGQTQPWTTQLWDLTGFSYEDLIPCVLSLHKKCFHDDAPKDYRQVSLTAVKQRFEDKRYGEISQEEVLSYSQLCAALGVTQDSPDPPTFLSTGEIHAFLSSPSGRRTKRKRENSLQEDRGSFVTTPTAELSSQEETLLGSFLDWSLDCCSGYEGDQESEGEKEGDVTAPSGILDVTVVYLNPEQHCCQESSDEEACPEDKGPQDPQALALDTQIPATPGPKPLVRTSREPGKDVTTSGYSSVSTASPTSSVDGGLGALPQPTSVLSLDSDSHTQPCHHQARKSCLQCRPPSPPESSVPQQQVKRINLCIHSEEEDMNLGLVRL |
| binds | – | – | cyclin F(S621G)-flag (protein, UniProt P41002 1-786) MGSGGVVHCRCAKCFCYPTKRRIRRRPRNLTILSLPEDVLFHILKWLSVEDILAVRAVHSQLKDLVDNHASVWACASFQELWPSPGNLKLFERAAEKGNFEAAVKLGIAYLYNEGLSVSDEARAEVNGLKASRFFSLAERLNVGAAPFIWLFIRPPWSVSGSCCKAVVHESLRAECQLQRTHKASILHCLGRVLSLFEDEEKQQQAHDLFEEAAHQGCLTSSYLLWESDRRTDVSDPGRCLHSFRKLRDYAAKGCWEAQLSLAKACANANQLGLEVRASSEIVCQLFQASQAVSKQQVFSVQKGLNDTMRYILIDWLVEVATMKDFTSLCLHLTVECVDRYLRRRLVPRYRLQLLGIACMVICTRFISKEILTIREAVWLTDNTYKYEDLVRMMGEIVSALEGKIRVPTVVDYKEVLLTLVPVELRTQHLCSFLCELSLLHTSLSAYAPARLAAAALLLARLTHGQTQPWTTQLWDLTGFSYEDLIPCVLSLHKKCFHDDAPKDYRQVSLTAVKQRFEDKRYGEISQEEVLSYSQLCAALGVTQDSPDPPTFLSTGEIHAFLSSPSGRRTKRKRENSLQEDRGSFVTTPTAELSSQEETLLGSFLDWSLDCCSGYEGDQEGEGEKEGDVTAPSGILDVTVVYLNPEQHCCQESSDEEACPEDKGPQDPQALALDTQIPATPGPKPLVRTSREPGKDVTTSGYSSVSTASPTSSVDGGLGALPQPTSVLSLDSDSHTQPCHHQARKSCLQCRPPSPPESSVPQQQVKRINLCIHSEEEDMNLGLVRL |
| – | binds | binds | NONO (protein, UniProt Q15233 1-471) MQSNKTFNLEKQNHTPRKHHQHHHQQQHHQQQQQQPPPPPIPANGQQASSQNEGLTIDLKNFRKPGEKTFTQRSRLFVGNLPPDITEEEMRKLFEKYGKAGEVFIHKDKGFGFIRLETRTLAEIAKVELDNMPLRGKQLRVRFACHSASLTVRNLPQYVSNELLEEAFSVFGQVERAVVIVDDRGRPSGKGIVEFSGKPAARKALDRCSEGSFLLTTFPRPVTVEPMDQLDDEEGLPEKLVIKNQQFHKEREQPPRFAQPGSFEYEYAMRWKALIEMEKQQQDQVDRNIKEAREKLEMEMEAARHEHQVMLMRQDLMRRQEELRRMEELHNQEVQKRKQLELRQEEERRRREEEMRRQQEEMMRRQQEGFKGTFPDAREQEIRMGQMAMGGAMGINNRGAMPPAPVPAGTPAPPGPATMMPDGTLGLTPPTTERFGQAATMEGIGAIGGTPPAFNRAAPGAEFAPNKRRRY |
